The text below walks through data of publication PMC5297731.

Protein sequences, listed by entry. Tags and fused reporters are not part of them.
UniProt P62820: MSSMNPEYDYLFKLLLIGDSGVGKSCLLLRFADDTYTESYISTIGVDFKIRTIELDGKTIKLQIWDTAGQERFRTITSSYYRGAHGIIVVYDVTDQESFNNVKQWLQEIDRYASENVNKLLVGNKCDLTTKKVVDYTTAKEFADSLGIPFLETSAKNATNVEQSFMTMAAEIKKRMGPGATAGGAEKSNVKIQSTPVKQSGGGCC
UniProt P62834: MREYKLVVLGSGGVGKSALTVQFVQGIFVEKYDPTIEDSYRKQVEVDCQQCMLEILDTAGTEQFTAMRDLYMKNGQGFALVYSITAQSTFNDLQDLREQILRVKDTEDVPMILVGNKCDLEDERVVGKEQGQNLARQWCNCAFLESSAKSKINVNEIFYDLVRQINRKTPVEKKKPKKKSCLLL
UniProt P61224: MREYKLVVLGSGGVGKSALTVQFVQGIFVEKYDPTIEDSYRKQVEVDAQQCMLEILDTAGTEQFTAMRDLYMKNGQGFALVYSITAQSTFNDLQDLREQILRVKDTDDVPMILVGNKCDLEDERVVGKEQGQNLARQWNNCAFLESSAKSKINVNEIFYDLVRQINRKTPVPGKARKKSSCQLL
UniProt P61026: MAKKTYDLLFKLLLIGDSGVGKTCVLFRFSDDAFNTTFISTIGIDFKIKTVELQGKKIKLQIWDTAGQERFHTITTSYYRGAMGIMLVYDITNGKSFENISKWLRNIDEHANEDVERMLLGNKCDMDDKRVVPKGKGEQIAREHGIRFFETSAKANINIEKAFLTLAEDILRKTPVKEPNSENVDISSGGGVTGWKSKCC

The target in the experiment is T1, Male Germ Cells Rab GTPase-Activating Protein (MGCRABGAP), FLAG-tagged (human) (UniProt Q8IYX1).
T1 sequence: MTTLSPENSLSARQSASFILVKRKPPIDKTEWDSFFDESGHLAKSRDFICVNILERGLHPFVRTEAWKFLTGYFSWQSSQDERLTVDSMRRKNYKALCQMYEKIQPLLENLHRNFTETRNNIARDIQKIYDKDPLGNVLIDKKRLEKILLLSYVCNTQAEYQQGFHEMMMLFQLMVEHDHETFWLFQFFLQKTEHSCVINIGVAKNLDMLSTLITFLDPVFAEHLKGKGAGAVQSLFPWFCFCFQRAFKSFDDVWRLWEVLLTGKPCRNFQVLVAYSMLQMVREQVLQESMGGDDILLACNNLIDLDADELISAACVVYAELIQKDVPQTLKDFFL
As to the kind of experiment: affinity purification with mass spectrometry; lysates of cells transfected with pFLAG-MGCRABGAP immunoprecipitated with anti-FLAG antibody or mouse IgG control; immunoprecipitates digested with Lys-C and trypsin, nano LC-MS/MS (LTQ Orbitrap XL).

No constants are given. Whether binding was seen depends on the method and setting. Binding seen in cells or lysates may run through a third protein. These calls come from enrichment with a bait or labelling near it, and not all partners need be listed. Tags and fused reporters may be left off the sequences shown.

As to RAB1A (from UniProt P62820 1-205), the binding result is on record as “binds”. Take RAP1A (from UniProt P62834 1-184): the binding result is “binds”. In the case of RAP1B (from UniProt P61224 1-184), the binding result is recorded as “binds”. In the case of RAB10 (from UniProt P61026 1-200), the binding entry is recorded as “binds”.
